Out of some 400,000 compounds screened, about 13,000 (3.2%) were called active. The inconclusive results got no clear call from the source; some entries with a clear call stand among them for comparison. The call rests on the fitted dose curve; in most records, active means well fitted cell-killing curve with a large enough effect; inconclusive means small, poorly fitted or top-dose-only effect, or effect the other way; inactive means flat fitted curve, though single readings scatter. Where the call is inconclusive, the potency comes from a doubtful curve fit.
assay: qHTS assay for MDR1-selective chemotherapeutics: Primary screen using the drug-selected MDR subline cells KB-V1; details: KB-V1 MDR cells viability, CellTiter-Glo, 72 h; activity change, negative = cytotoxicity: at 46.1 µM (top of the series); further: nearly all actives have a fitted effect of over 60% in size
How it was run: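 KB-V1 cells (P-gp-expressing MDR subline of KB-3-1) in phenol-red-free DMEM with 10% FBS were exposed to library compounds over a concentration series for 72 h at 37 degrees C. Viability read by CellTiter-Glo luminescence; concentration-effect curves fitted after normalization.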
On the % scale 0 is the no-effect control and ±100 the full control effect; potency means the concentration at half of the fitted maximal effect.

Which Potency does the source give for `CCCCC(Sc1ccc2nnc(-c3ccccn3)n2n1)C(=O)O` (stereo not drawn) here?
Its Potency is inconclusive: 20.6 µM [rising, single point].

For `O=C1CC(N2CCN(S(=O)(=O)c3ccc(Cl)cc3)CC2)C(=O)N1CCc1ccccc1` (stereo not drawn), which Potency is on record?
The Potency was inconclusive: 9.2 µM [cytotoxic, partial curve].

Which “activity change, negative = cytotoxicity” value does the source give for `CC(=O)Nc1ccc(CN(C)c2c(C)nc3ccc(C(=O)Nc4ccc(Cl)c(Cl)c4)cn23)cc1` here?
The value was inactive: -22.9%.

For `CCn1c(Cn2nnc(-c3ccccc3)n2)nnc1SCC(=O)Nc1ccc(N(C)C)cc1`, which Potency is on record?
Its Potency is inconclusive: 11.6 µM [cytotoxic, partial curve, poor fit].

For `C[C@H](c1ccccc1)N1C[C@H](COCc2ccccc2)Oc2cc(N3CC[C@H](N(C)C)C3)ccc2S1(=O)=O`, which Potency is on record?
Its Potency is inconclusive: 29.1 µM [cytotoxic, single point].

For `CCOC(=O)c1cc(-c2ccccc2)n(-c2cccc(C(=O)Nc3cc(OC)cc(OC)c3)c2)c1C`, which “activity change, negative = cytotoxicity” value is on record?
Its value is inactive: 17.9%.

With `CCCc1cnc(N2CCN(C(=O)c3ccc(OC)cc3)CC2)nc1` as the compound, how does the Potency read?
The Potency was inconclusive: 25.9 µM [cytotoxic, single point].

For `Cc1ccc2occ(/C=N/NC(=O)c3ccc(Cl)cc3)c(=O)c2c1`, which Potency is on record?
Its Potency is inconclusive: 29.1 µM [cytotoxic, single point].

Which Potency does the source give for `CN=C(Nc1ccccc1OC)SC1CC(=O)N(c2ccc(C(=O)OC)cc2)C1=O` (stereo not drawn) here?
Its Potency is inconclusive: 9.2 µM [cytotoxic, partial curve].

With `CCOC(=O)C1(CCOc2ccccc2)CCN(Cc2nccn2CC)CC1` as the compound, how does the “activity change, negative = cytotoxicity” value read?
The value was inactive: -0.366%.

For `O=C(NN1C(=O)c2ccccc2C1=O)C1CC2CCC1C2` (stereo not drawn), which Potency is on record?
The Potency was inconclusive: 29.1 µM [rising, single point].

With `CC(=O)Oc1ccc(C23c4ccccc4C2(OC(C)=O)c2cc(OC(C)=O)ccc23)cc1` (stereo not drawn) as the compound, how does the Potency read?
Its Potency is inconclusive: 20.6 µM [cytotoxic, single point].

For `C[C@H]1CN([C@@H](C)CO)C(=O)c2cc(Br)cnc2O[C@H]1CN(C)C(=O)c1cccnc1`, which Potency is on record?
Its Potency is inconclusive: 32.6 µM [rising, single point].

Which Potency does the source give for `Cc1ccc2nccc(/C=C/c3ccc(N(C)C)cc3)c2c1` here?
Its Potency is active: 18.4 µM.

For `Cc1ccc(NC(=O)CSc2nncn2-c2ccccn2)cc1Cl`, which Potency is on record?
The Potency was inconclusive: 18.4 µM [cytotoxic, single point].

For `Cc1cc(C)c(-n2c(SCc3nc4ccccc4s3)n[nH]c2=O)c(C)c1`, which Potency is on record?
The Potency was inconclusive: 16.4 µM [cytotoxic, partial curve, poor fit].

With `COC(=O)[C@@]1(Sc2ccc(OC)cc2)CC(=O)N[C@@H]1c1ccccc1` as the compound, how does the Potency read?
The Potency was inconclusive: 18.4 µM [cytotoxic, partial curve].

For `O=C(CSc1nc(=O)n2cc(Cl)ccc2n1)Nc1ccc2c(c1)OCO2`, which Potency is on record?
Its Potency is inconclusive: 25.9 µM [cytotoxic, single point].

For `COc1cccc(/C=N/NC(=O)c2cc3c(OC)cccc3[nH]2)c1OC`, which Potency is on record?
The Potency was inconclusive: 16.4 µM [cytotoxic, partial curve, poor fit].

With `COc1cccc2c1Oc1ncccc1N(C(=O)CCC(=O)NCc1ccccc1)C2` as the compound, how does the Potency read?
Its Potency is inconclusive: 29.1 µM [rising, partial curve, poor fit].

With `O=C(C1=C(O)C(=O)N(c2ncccn2)C1c1ccc(Cl)cc1)c1ccco1` (stereo not drawn) as the compound, how does the Potency read?
The Potency was inconclusive: 29.1 µM [rising, single point].

With `CCOC(=O)[C@]12CCCC=C1N(Cc1ccc(Cl)cc1Cl)C(=O)[C@H](CC(=O)NCc1cccs1)C2` as the compound, how does the Potency read?
The Potency was inconclusive: 18.4 µM [cytotoxic, single point].

For `O=C(O)c1cccc(Nc2ncnc3scc(-c4ccccc4)c23)c1`, which “activity change, negative = cytotoxicity” value is on record?
Its value is inactive: 3.32%.

For `CCOC(=O)[C@]12CCCC=C1N(CCc1ccc(OC)c(OC)c1)C(=O)[C@H](CC(=O)N1CCCCC1)C2`, which Potency is on record?
The Potency was inconclusive: 5.17 µM [cytotoxic, partial curve].

With `Cc1cc(C(=O)CSc2nnc(-c3ccccc3)n2C)c(C)n1C` as the compound, how does the Potency read?
Its Potency is active: 7.31 µM.

For `O=C(CCn1cnnn1)Nc1cccc(F)c1`, which “activity change, negative = cytotoxicity” value is on record?
The value was inactive: 0.766%.

Which Potency does the source give for `OCCN1CCN(C2CCC(c3ccc(F)cc3)c3ccc(F)cc32)CC1` (stereo not drawn) here?
Its Potency is inconclusive: 18.4 µM [cytotoxic, partial curve, poor fit].

Which Potency does the source give for `Cc1ccc(NC(=S)NC(=O)c2ccc(F)cc2)cc1S(=O)(=O)Nc1ccccc1Cl` here?
The Potency was inconclusive: 20.6 µM [cytotoxic, single point].

With `Clc1ss/c(=N\c2ccccn2)c1Cl` as the compound, how does the “activity change, negative = cytotoxicity” value read?
Its value is inactive: 18.7%.

For `Cc1ccc(C[n+]2ccccc2)cc1`, which Potency is on record?
Its Potency is inconclusive: 29.1 µM [rising, single point].

With `Cc1onc(-c2ccccc2Cl)c1C(=O)NCc1ccccc1F` as the compound, how does the Potency read?
Its Potency is inconclusive: 0.0082 µM [rising, full curve, poor fit].

For `COc1ccc(-n2nc([N+](=O)[O-])c(=NCCc3ccccc3)n2O)cc1`, which Potency is on record?
Its Potency is inconclusive: 18.4 µM [cytotoxic, single point].

For `CCC(C)NC(=O)CCSc1nc(-c2ccc(OC)cc2)cc(C(F)(F)F)n1` (stereo not drawn), which Potency is on record?
The Potency was inconclusive: 18.4 µM [cytotoxic, partial curve].

Which “activity change, negative = cytotoxicity” value does the source give for `C=CCOc1ccc(/C=N/O)cc1Cl` here?
Its value is inactive: -9.29%.

Which “activity change, negative = cytotoxicity” value does the source give for `O=C(CSc1nc2ccccc2o1)N/N=C/c1ccc(C(=O)O)cc1` here?
Its value is inactive: -8.29%.

For `O=C(CN1CCN(c2ccc(C(F)(F)F)cn2)CC1)Nc1ccc2c(c1)OCO2`, which “activity change, negative = cytotoxicity” value is on record?
Its value is inactive: -2.07%.

Which “activity change, negative = cytotoxicity” value does the source give for `NC(CSC(c1ccccc1)(c1ccccc1)c1ccc(-c2ccccc2)cc1)C(=O)O` (stereo not drawn) here?
Its value is inactive: -3.77%.

With `N#Cc1ccc(OCC(=O)NNC(=S)NC(=O)C2CC2)cc1` as the compound, how does the Potency read?
Its Potency is inconclusive: 3.66 µM [cytotoxic, full curve, poor fit].

For `O=C1c2cccc3cccc(c23)C(=O)N1OS(=O)(=O)c1ccc(Cl)cc1`, which “activity change, negative = cytotoxicity” value is on record?
The value was inactive: 0.857%.

For `C=CCOc1c(CNc2ccc3[nH]c(=O)[nH]c3c2)cccc1OC`, which Potency is on record?
Its Potency is inconclusive: 29.1 µM [cytotoxic, single point].

With `Cc1ccccc1C(=O)Oc1c(Sc2ccccc2)c(C)nn1C(C)(C)C` as the compound, how does the Potency read?
Its Potency is inconclusive: 29.1 µM [rising, single point].

For `O=[N+]([O-])c1cccc(-c2ccc(SCc3cccnc3)nn2)c1`, which Potency is on record?
Its Potency is inconclusive: 23.1 µM [cytotoxic, partial curve, poor fit].

With `COc1ccc(N2CC(NC(=O)c3ccc(S(=O)(=O)N4CCOCC4)cc3)CC2=O)cc1OC` (stereo not drawn) as the compound, how does the “activity change, negative = cytotoxicity” value read?
Its value is inactive: -3.85%.

With `O=C(Nc1cccc(-c2nnc(-c3ccccc3)o2)c1)c1ccco1` as the compound, how does the Potency read?
Its Potency is active: 2.91 µM.

For `CCCC(C)NC(=O)c1cc(C(=O)OC)cc([N+](=O)[O-])c1` (stereo not drawn), which Potency is on record?
Its Potency is inconclusive: 14.6 µM [cytotoxic, partial curve, poor fit].

With `CSc1nc2ccccc2cc1/C=C(\C#N)c1cccc(C)c1` as the compound, how does the Potency read?
Its Potency is active: 14.6 µM.

Which Potency does the source give for `CCC(C)(C)n1nnnc1C(C(C)C)N(Cc1ccco1)Cc1cc2cc3c(cc2[nH]c1=O)OCO3` (stereo not drawn) here?
The Potency was active: 14.6 µM.

For `CC(=O)OCC(=O)Nc1ccc([N+](=O)[O-])cc1Cl`, which Potency is on record?
The Potency was inconclusive: 29.1 µM [rising, single point].

For `CN(C)/C=C/C(=O)c1ccc(-c2ccc(Cl)cc2Cl)o1`, which Potency is on record?
Its Potency is inconclusive: 16.4 µM [cytotoxic, single point].

For `CCOC(=O)c1cn(CC2CC2)c2cc(F)c(F)cc2c1=O`, which Potency is on record?
Its Potency is inconclusive: 7.31 µM [rising, partial curve, poor fit].

With `COC(=O)c1coc(-c2ccc(OC)cc2)c1C(=O)OC` as the compound, how does the Potency read?
The Potency was inconclusive: 16.4 µM [cytotoxic, single point].

With `COC(=O)c1ccc(Oc2ccc(C(C)(C)C)cc2)c([N+](=O)[O-])c1` as the compound, how does the Potency read?
Its Potency is inconclusive: 29.1 µM [cytotoxic, single point].

With `CCN(C(=O)COC(=O)CNC(=O)c1cccs1)c1c(N)n(Cc2ccccc2)c(=O)[nH]c1=O` as the compound, how does the Potency read?
The Potency was inconclusive: 29.1 µM [rising, single point].

With `COc1ccc(C2C(C(=O)NCc3ccco3)c3ccccc3C(=O)N2C)cc1` (stereo not drawn) as the compound, how does the Potency read?
The Potency was inconclusive: 14.6 µM [cytotoxic, single point].

With `CC(Sc1nc(N)c2c3c(sc2n1)CSC(C)(C)C3)C(=O)Nc1ccccc1` (stereo not drawn) as the compound, how does the Potency read?
The Potency was active: 20.6 µM.

With `Cc1nn2c(NCCN(C)C)c3c(nc2c1-c1ccccc1)CCCC3` as the compound, how does the Potency read?
Its Potency is inconclusive: 25.9 µM [rising, single point].

With `Cc1cc(C)cc(N(CCC(=O)Nc2nnc(C)s2)S(=O)(=O)c2ccc(Cl)cc2)c1` as the compound, how does the Potency read?
The Potency was active: 23.1 µM.

For `CN(C1CCCCC1)S(=O)(=O)c1ccccc1`, which Potency is on record?
Its Potency is inconclusive: 23.1 µM [cytotoxic, single point].

Which “activity change, negative = cytotoxicity” value does the source give for `COc1cc2[nH]c(=O)n(CCCCCC(=O)NC3CCCC3)c(=O)c2cc1OC` here?
The value was inactive: 12.9%.

With `CCOC(=O)c1c(NC(=O)CSc2nnc(-c3cccnc3)o2)sc(C(C)=O)c1C` as the compound, how does the “activity change, negative = cytotoxicity” value read?
The value was inactive: 12.2%.

Which Potency does the source give for `COc1cccc(-n2c(-c3cccc(F)c3)nc3c(cnn3-c3ccc(C)cc3)c2=O)c1` here?
Its Potency is inconclusive: 8.2 µM [rising, partial curve, poor fit].

Which Potency does the source give for `Cc1nc(N2CCOCC2)c2c(C)c(C(=O)Nc3ccccc3C(F)(F)F)sc2n1` here?
Its Potency is inconclusive: 6.51 µM [cytotoxic, partial curve, poor fit].

For `CCOC(=O)C(CC)/C(C)=N\NC(=O)CCC(=O)Nc1ccc(Cl)cc1Cl` (stereo not drawn), which Potency is on record?
The Potency was inconclusive: 2.06 µM [rising, full curve].

For `COc1ccc(S(=O)(=O)N(CC(=O)NCc2ccco2)c2ccccc2OC)cc1`, which “activity change, negative = cytotoxicity” value is on record?
Its value is inactive: -0.394%.

Which “activity change, negative = cytotoxicity” value does the source give for `CCN(CC)C1CCCCC1NS(=O)(=O)c1ccc(Cl)cc1` (stereo not drawn) here?
Its value is inactive: 30.8%.

With `O=S(=O)(NCc1ccc(Cl)cc1)c1ccc(-c2cnc(C3CC3)o2)cc1` as the compound, how does the “activity change, negative = cytotoxicity” value read?
Its value is inactive: 4.17%.

For `O=C(c1ccc([N+](=O)[O-])cc1)N1CCSC1c1ccccc1Cl` (stereo not drawn), which Potency is on record?
The Potency was inconclusive: 29.1 µM [cytotoxic, single point].

With `Clc1ccc(NCn2cncn2)nc1` as the compound, how does the Potency read?
The Potency was inconclusive: 16.4 µM [rising, single point].

From PubChem BioAssay AID1347076 (National Center for Advancing Translational Sciences (NCATS), 2019)
